## Primary screen of a compound library

Mtb growth Cornell: 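Whole-cell assay for inhibitors of Mycobacterium tuberculosis growth, labelled Cornell in the record; the read-out is not stated. The concentration is filed as 10 mM, unlikely as a test dose, so the dose is not known. Higher means stronger inhibition (inferred from two other growth screens of the library). Size under these conditions: about 53,000 compounds, about 900 of them at 50% or above in at least one test.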
Mtb heat-shock: 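Assay on Mycobacterium tuberculosis, filed only as a heat shock assay from Cornell; the read-out is not stated. The concentration is filed as 10 mM, unlikely as a test dose, so the dose is not known. The record gives no direction; compounds that gave an IC50 in retests scored well above the rest, so higher reads as stronger inhibition. Of about 69,000 compounds tested this way, about 930 (1.4%) reached 50% or more in at least one test.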

Values are the deposited “Percent Effect”, in %.
How 0% and 100% were set is not recorded. Most values in the screen are low, and negative values occur.
Compounds were drawn at random from those tested, without regard to their results.

* Cn1nc(Br)c2c(NCCCS(N)(=O)=O)ncnc21 | Mtb growth Cornell: 24.15%; Mtb heat-shock: -31.52%
* Cc1noc(CN2CC=C(c3cnn(C4CCS(=O)(=O)C4)c3)CC2)n1 (centres unmarked) | Mtb growth Cornell: 26.36%; Mtb heat-shock: 1.292%
* CCn1ncc2c1C(COCC1CC1)N(Cc1ccccn1)CC2.O=C(O)C(F)(F)F.O=C(O)C(F)(F)F (centres unmarked) | Mtb growth Cornell: 29.68%; Mtb heat-shock: -11.22%
* Fc1ccc(CN2CCC3(CCCN(c4nncs4)C3)C2)cc1.O=C(O)C(F)(F)F (centres unmarked) | Mtb growth Cornell: 3.835%; Mtb heat-shock: -17.15%
* CNc1cc(C)nc(-c2cc(NCCO)nc3[nH]ccc23)n1 | Mtb growth Cornell: -6.338%; Mtb heat-shock: -14.15%
* O=C1C(NS(=O)(=O)c2ccc(F)cc2F)CCN1Cc1ccccc1 (centres unmarked) | Mtb heat-shock: -7.279%
* [H][C@]12CCN(S(C)(=O)=O)[C@@]1([H])CC[C@@H](COCc1csc(C)n1)O2 | Mtb growth Cornell: -0.6477%; Mtb heat-shock: -31.88%
* O=C(NC1CCCC1)N1CCC2(CC1)CC(Oc1cccnc1)CO2 (centres unmarked) | Mtb heat-shock: -29.04%
* O=C(O)C(F)(F)F.O=C(O)C(F)(F)F.[H][C@@]12CN(CCN3CCCC3)CC[C@]1([H])CN(c1cc(OC)ncn1)C2 | Mtb growth Cornell: 17.04%; Mtb heat-shock: 4.741%
* c1ccc(CCN2CCOC3(CCc4ccccc43)C2)nc1 (centres unmarked) | Mtb growth Cornell: 12.3%; Mtb heat-shock: -8.791%
* COCC(C)N1CCN(CCc2ccc3c(c2)CCO3)CC1 (centres unmarked) | Mtb growth Cornell: -12.27%; Mtb heat-shock: 3.848%
* CC(C)(C)n1ncc2c(=O)[nH]c(N3CCN(CC(F)F)CC3)nc21 | Mtb growth Cornell: 62.42%; Mtb heat-shock: 19.43%
* CNc1nc(C)cc(NCc2cc(C)cc3c(C)c(C)[nH]c23)n1 | Mtb growth Cornell: 10.64%; Mtb heat-shock: 64.43%
* N#Cc1c(F)cccc1N1CCCC(C(=O)Nc2nncs2)C1 (centres unmarked) | Mtb growth Cornell: 0.5114%; Mtb heat-shock: 13.66%
* CN(CCCc1cnn(C)c1)c1nccc(-c2cc(C(=O)O)ccn2)n1 | Mtb heat-shock: -7.874%
* Cn1ccnc1C1c2nc[nH]c2CCN1Cc1cccnc1 (centres unmarked) | Mtb growth Cornell: -5.72%; Mtb heat-shock: -11.85%
* NC1CCN(C(=O)c2cnc(Cc3c(Cl)cccc3Cl)nc2O)C1 (centres unmarked) | Mtb growth Cornell: 15.77%; Mtb heat-shock: -8.426%
* [H][C@@]12CCN(C(=O)Cc3cccs3)C[C@@]1([H])O[C@H](c1noc(C)n1)C2 | Mtb growth Cornell: 53.11%; Mtb heat-shock: -28.17%
* CCc1ncnc2c1CCN(C(=O)N1CCCC1)CC2 | Mtb growth Cornell: -12.7%; Mtb heat-shock: -7.181%
* CSCc1cc(F)ccc1CNC(=O)N1CCCC(CO)C1 (centres unmarked) | Mtb growth Cornell: -26.75%; Mtb heat-shock: 5.007%
* O=C(NCc1ccccc1CN1CCC(O)CC1)Nc1ccccn1 | Mtb growth Cornell: 6.884%; Mtb heat-shock: -14.77%
* O=C(NCCOc1ncc(Cl)cc1Cl)NCc1ccncc1 | Mtb growth Cornell: 7.234%; Mtb heat-shock: -8.677%
* COc1ncccc1CNC(=O)c1c[nH]c(=O)c(Br)c1 | Mtb growth Cornell: 5.874%; Mtb heat-shock: -9.747%
* COc1cc(CNCc2ccnc(N3CCOCC3)c2)cc(OC)c1 | Mtb growth Cornell: -35.93%; Mtb heat-shock: -22.48%
* CC(C)Oc1ccccc1C(=O)NC1CC(=O)N(CC(F)(F)F)C1 (centres unmarked) | Mtb growth Cornell: 21.34%; Mtb heat-shock: -5.864%
* COc1ccc(F)cc1C(C)NC(=O)Nc1nncs1 (centres unmarked) | Mtb heat-shock: 17.02%
* CC(C)NC(=O)c1nc(COc2ccc3c(c2)OCO3)no1 | Mtb growth Cornell: 22.39%; Mtb heat-shock: 17.26%
* c1ccc(Cc2cccc(C3CCCN3C3CCOCC3)n2)cc1 (centres unmarked) | Mtb growth Cornell: 10.28%; Mtb heat-shock: 48.5%
* O=S(=O)(N1CCOCC1)N1CCOC(CCCc2ccccc2)C1 (centres unmarked) | Mtb heat-shock: -29%
* Cc1[nH]c2ccc(CNc3cc(C(N)=O)ccn3)cc2c1C | Mtb growth Cornell: -17.06%; Mtb heat-shock: 17.68%
* CNC(=O)CCc1cccc(OC2CCCC2)c1 | Mtb heat-shock: -2.748%
* c1cc(CN2CCC(c3nnc4n3CCCCC4)CC2)c2nonc2c1 | Mtb growth Cornell: -27.17%; Mtb heat-shock: -9.3%
* Cc1cc(-c2ccnn2C)nc(C2CCN(S(C)(=O)=O)CC2)n1 | Mtb growth Cornell: 31.8%; Mtb heat-shock: -12.24%
* Cc1cnn(CCNC(C)c2nnc(-c3ccccc3)o2)c1 (centres unmarked) | Mtb growth Cornell: 6.429%; Mtb heat-shock: 6.048%
* C[C@@]1(O)CCN(C2CCOCC2)C[C@H]1n1ccc(=O)[nH]c1=O | Mtb growth Cornell: -8.272%; Mtb heat-shock: 12.95%
* COCC(C)NC(=O)c1nnn(-c2ccc(F)cc2)n1 (centres unmarked) | Mtb growth Cornell: 8.347%; Mtb heat-shock: 3.415%
* O=C(CCOc1cccc(F)c1)N1CCCC(n2cncn2)C1 (centres unmarked) | Mtb heat-shock: 3.566%
* CNc1ccnc(N2CCC(c3nnc(CN4CCCC4)n3C)CC2)n1 | Mtb growth Cornell: -40.2%; Mtb heat-shock: -30.54%
* O=C(O)C(F)(F)F.O=C(O)C(F)(F)F.[H][C@@]12CCN(Cc3cccc(C)n3)[C@@]1([H])CCN2C(=O)c1ccno1 | Mtb growth Cornell: 8.016%; Mtb heat-shock: -2.422%
* Cl.NCC1CCCCN1C(=O)Cc1cccc(Cl)c1 (centres unmarked) | Mtb growth Cornell: -1.231%; Mtb heat-shock: -16.31%
* CN1CCC(N(C)CCC(=O)N2CCC(Cc3ccc(F)cc3)CC2)C1 (centres unmarked) | Mtb growth Cornell: 13.89%; Mtb heat-shock: 12.07%
* CNS(=O)(=O)c1cccc(CNC(=O)c2cc(C)no2)c1 | Mtb heat-shock: -40.73%
* Cc1cncc(C(=O)N2CCN(c3cnn(C)c(=O)c3)CC2)c1 | Mtb growth Cornell: -2.586%; Mtb heat-shock: -10.22%

Repeated from the top, 4 entries:

Compound,Mtb growth Cornell,Mtb heat-shock
Cn1nc(Br)c2c(NCCCS(N)(=O)=O)ncnc21,24.15,-31.52
Cc1noc(CN2CC=C(c3cnn(C4CCS(=O)(=O)C4)c3)CC2)n1 (centres unmarked),26.36,1.292
CCn1ncc2c1C(COCC1CC1)N(Cc1ccccn1)CC2.O=C(O)C(F)(F)F.O=C(O)C(F)(F)F (centres unmarked),29.68,-11.22
Fc1ccc(CN2CCC3(CCCN(c4nncs4)C3)C2)cc1.O=C(O)C(F)(F)F (centres unmarked),3.835,-17.15

The values are deposited in ChEMBL (CHEMBL3988442, “University of Dundee, Small-Polar-MMV Screening Library” (2021)).